Some of the results follow. Construct or isoform of the protein are uncertain.

In this test the target is T1, ELF2 (UniProt Q15723).
T1 sequence: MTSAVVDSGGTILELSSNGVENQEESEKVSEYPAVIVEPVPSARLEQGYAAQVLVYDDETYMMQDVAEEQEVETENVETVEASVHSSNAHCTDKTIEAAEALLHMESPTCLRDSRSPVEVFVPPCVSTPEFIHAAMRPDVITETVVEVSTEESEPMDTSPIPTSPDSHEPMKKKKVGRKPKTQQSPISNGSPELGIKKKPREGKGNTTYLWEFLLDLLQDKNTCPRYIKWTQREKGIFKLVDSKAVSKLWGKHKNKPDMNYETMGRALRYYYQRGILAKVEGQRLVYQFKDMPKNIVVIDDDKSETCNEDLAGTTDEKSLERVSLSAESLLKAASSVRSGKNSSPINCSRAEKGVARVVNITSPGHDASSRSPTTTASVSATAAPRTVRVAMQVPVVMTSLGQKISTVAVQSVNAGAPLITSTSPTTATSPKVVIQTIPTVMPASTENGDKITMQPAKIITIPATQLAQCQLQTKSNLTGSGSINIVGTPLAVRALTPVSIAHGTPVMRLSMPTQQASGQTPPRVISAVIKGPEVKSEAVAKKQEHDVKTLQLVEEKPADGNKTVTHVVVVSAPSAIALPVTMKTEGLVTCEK
The test is described as follows: DAPPL (digital affinity profiling via proximity ligation, sequencing). To be noted: 10 mM Tris-HCl pH 7.5, 50 mM NaCl, 1 mM DTT, 4% glycerol, room temperature, 30 min; GST-TFs on glutathione beads, 16-mer random dsDNA library, 0.1% …; high values mean tight binding; double strand, one strand shown; scale: fold enrichment (6-mer frequency, TF over GST control).
As to AGGGCT, the binding signal amounted to 1. The value for TCGGCT was 0.902; that for TCGCCC was 1.24; that for ACTCAT was 1.22. ATATCC registered a binding signal of 3.53. Sequence AAACAC came in with a binding signal of 1.32.

On to ATACGC, for which the binding signal is 1.11. The value for CGAATC was 0.989; that for TCTTAT was 1.21; that for ATATTC was 1.32. The figure for ATTGGG is 1.13; for TCCAAG it is 1.06; for AGCTCG it is 0.972. AAGAAC: the binding signal came out at 1.26.

In turn, TCGAGT returned a binding signal of 0.888. AAGCTG: the binding signal was determined as 1.1. Consider TTTCAC, for which the binding signal is 1.35. The figure for GCCTAA is 1.12. Regarding TAGCAT, the binding signal was found to be 1.11. The value for GATCTG was 0.89. The figure for CGTTCT is 1.38.

AATACC registered a binding signal of 1.26. The value for TCCTAA was 1.45. The figure for TAAATC is 1.24; for AACCTA it is 1.05. GCGATA returned a binding signal of 0.947. The figure for ATTAGT is 1.02; for ATTCGA it is 1.33; for TAATAC it is 1.12. In turn, TGCGCA returned a binding signal of 1.09. The value for ATGGGC was 1.19; that for TTCTCT was 1.31. The value for CGATAG was 1.07.

In the case of TCACGT, the binding signal worked out at 1.16. The figure for CGTTTT is 1.24; for AACTAT it is 1.37; for AAGATC it is 1.03. The value for AAGCAA was 1.09; that for CCTTCA was 1.35; that for GGCTAA was 0.901.
